# Measured data: PubChem BioAssay AID1259254 (NCATS, 2017)
# Aim: 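Finding genes that stop cells copying their DNA twice in one cycle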 (primary screen)
# System: human HCT116 colorectal cancer cells
# Reagents: single siRNA against human genes
# Timing: 3 days
# Detection: 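Nuclei stained with Hoechst and imaged; cell-cycle phase assigned by DNA content; G2 share scaled per plate, non-targeting siRNA 0%, GMNN siRNA 100%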
# Direction: G2 robust z-score and G2 cells, % of GMNN control: higher = more G2 cells, more excess DNA replication
# Hit rule: 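Active siRNAs have a G2 robust z of 5 or more median absolute deviations over the median, which in these data means about 38% or higher of GMNN control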
# Here is one part, drawn at random, of about 59,000 deposited reagents. In the full data, about 1,550 (2.6%) are marked active. 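G2 share is only a proxy for re-replication; each gene was hit by three separate siRNAs, and active genes were retested.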 Entries without a mark were called inactive. The numbers tell different reagents against one gene apart. Not all columns of the deposit are shown. Reagent sequences are not shown. Not stated in the record: the amount of reagent.
The opening 5 entries, to show the layout:
gene symbol,reagent no.,G2 robust z-score,"G2 cells, % of GMNN control"
LINC00687 (long independently transcribed non-coding RNA 687),1,-0.0032,2.94
LINC00687 (long independently transcribed non-coding RNA 687),2,-0.75,-2.31
LINC00687 (long independently transcribed non-coding RNA 687),3,-0.46,-0.267
"TOE1 (target of EGR1, exonuclease)",1,0.0109,3.04
"TOE1 (target of EGR1, exonuclease)",2,-0.381,0.284

The listing, from the first entry:
gene symbol,reagent no.,G2 robust z-score,"G2 cells, % of GMNN control"
LINC00687 (long independently transcribed non-coding RNA 687),1,-0.0032,2.94
LINC00687 (long independently transcribed non-coding RNA 687),2,-0.75,-2.31
LINC00687 (long independently transcribed non-coding RNA 687),3,-0.46,-0.267
"TOE1 (target of EGR1, exonuclease)",1,0.0109,3.04
"TOE1 (target of EGR1, exonuclease)",2,-0.381,0.284
"TOE1 (target of EGR1, exonuclease)",3,-0.85,-3.02
ALDH1B1 (aldehyde dehydrogenase 1 family member B1),1,-0.357,0.455
ALDH1B1 (aldehyde dehydrogenase 1 family member B1),2,-0.215,1.45
ALDH1B1 (aldehyde dehydrogenase 1 family member B1),3,-0.413,0.0624
ZNF496 (zinc finger protein 496),1,-0.422,-0.000293
ZNF496 (zinc finger protein 496),2,-1.52,-7.7
ZNF496 (zinc finger protein 496),3,-0.495,-0.517
TNFSF14 (TNF superfamily member 14),1,-0.425,-0.0241
TNFSF14 (TNF superfamily member 14),2,-0.586,-1.16
TNFSF14 (TNF superfamily member 14),3,2.04,17.3
TRIP10 (thyroid hormone receptor interactor 10),1,-1.09,-4.73
TRIP10 (thyroid hormone receptor interactor 10),2,-1.04,-4.37
TRIP10 (thyroid hormone receptor interactor 10),3,-0.668,-1.73
CEMIP2 (cell migration inducing hyaluronidase 2),1,-0.218,1.44
CEMIP2 (cell migration inducing hyaluronidase 2),2,-0.0854,2.37
CEMIP2 (cell migration inducing hyaluronidase 2),3,0.415,5.89
PLA2G1B (phospholipase A2 group IB),1,-0.285,0.963
PLA2G1B (phospholipase A2 group IB),2,0.212,4.46
PLA2G1B (phospholipase A2 group IB),3,2.12,17.9
CNGA4 (cyclic nucleotide gated channel subunit alpha 4),1,2.54,20.8
CNGA4 (cyclic nucleotide gated channel subunit alpha 4),2,3.14,25.1
CNGA4 (cyclic nucleotide gated channel subunit alpha 4),3,1.72,15.1
NECTIN3 (nectin cell adhesion molecule 3),1,1.78,15.5
NECTIN3 (nectin cell adhesion molecule 3),2,0.218,4.5
NECTIN3 (nectin cell adhesion molecule 3),3,-0.576,-1.08
"METRNL (meteorin like, glial cell differentiation regulator)",1,1.35,12.5
"METRNL (meteorin like, glial cell differentiation regulator)",2,-0.234,1.32
"METRNL (meteorin like, glial cell differentiation regulator)",3,-0.0101,2.9
SIM2 (SIM bHLH transcription factor 2),1,-0.891,-3.3
SIM2 (SIM bHLH transcription factor 2),2,-1.54,-7.86
SIM2 (SIM bHLH transcription factor 2),3,-0.486,-0.452
STPG1 (sperm tail PG-rich repeat containing 1),1,0.0647,3.42
STPG1 (sperm tail PG-rich repeat containing 1),2,-0.0154,2.86
STPG1 (sperm tail PG-rich repeat containing 1),3,0.476,6.31
EML3 (EMAP like 3),1,1.52,13.7
EML3 (EMAP like 3),2,-0.667,-1.73
EML3 (EMAP like 3),3,1.67,14.7
RHOBTB1 (Rho related BTB domain containing 1),1,-0.225,1.38
RHOBTB1 (Rho related BTB domain containing 1),2,-0.619,-1.39
RHOBTB1 (Rho related BTB domain containing 1),3,1.43,13
GPR22 (G protein-coupled receptor 22),1,0.321,5.23
GPR22 (G protein-coupled receptor 22),2,-1.23,-5.67
GPR22 (G protein-coupled receptor 22),3,0.291,5.02
